According to patent USRE50319E1, “Compounds and methods for treating cancer” (Dana-Farber Cancer Institute, Inc., priority 2017, dated 2025):
At least one compound was matched to its structure with a doubt left.

Sequences of proteins named here, by UniProt entry; tags and fusion partners are left off. A change or cut given only in a name is not applied to a line headed by its entry.
UniProt O75417: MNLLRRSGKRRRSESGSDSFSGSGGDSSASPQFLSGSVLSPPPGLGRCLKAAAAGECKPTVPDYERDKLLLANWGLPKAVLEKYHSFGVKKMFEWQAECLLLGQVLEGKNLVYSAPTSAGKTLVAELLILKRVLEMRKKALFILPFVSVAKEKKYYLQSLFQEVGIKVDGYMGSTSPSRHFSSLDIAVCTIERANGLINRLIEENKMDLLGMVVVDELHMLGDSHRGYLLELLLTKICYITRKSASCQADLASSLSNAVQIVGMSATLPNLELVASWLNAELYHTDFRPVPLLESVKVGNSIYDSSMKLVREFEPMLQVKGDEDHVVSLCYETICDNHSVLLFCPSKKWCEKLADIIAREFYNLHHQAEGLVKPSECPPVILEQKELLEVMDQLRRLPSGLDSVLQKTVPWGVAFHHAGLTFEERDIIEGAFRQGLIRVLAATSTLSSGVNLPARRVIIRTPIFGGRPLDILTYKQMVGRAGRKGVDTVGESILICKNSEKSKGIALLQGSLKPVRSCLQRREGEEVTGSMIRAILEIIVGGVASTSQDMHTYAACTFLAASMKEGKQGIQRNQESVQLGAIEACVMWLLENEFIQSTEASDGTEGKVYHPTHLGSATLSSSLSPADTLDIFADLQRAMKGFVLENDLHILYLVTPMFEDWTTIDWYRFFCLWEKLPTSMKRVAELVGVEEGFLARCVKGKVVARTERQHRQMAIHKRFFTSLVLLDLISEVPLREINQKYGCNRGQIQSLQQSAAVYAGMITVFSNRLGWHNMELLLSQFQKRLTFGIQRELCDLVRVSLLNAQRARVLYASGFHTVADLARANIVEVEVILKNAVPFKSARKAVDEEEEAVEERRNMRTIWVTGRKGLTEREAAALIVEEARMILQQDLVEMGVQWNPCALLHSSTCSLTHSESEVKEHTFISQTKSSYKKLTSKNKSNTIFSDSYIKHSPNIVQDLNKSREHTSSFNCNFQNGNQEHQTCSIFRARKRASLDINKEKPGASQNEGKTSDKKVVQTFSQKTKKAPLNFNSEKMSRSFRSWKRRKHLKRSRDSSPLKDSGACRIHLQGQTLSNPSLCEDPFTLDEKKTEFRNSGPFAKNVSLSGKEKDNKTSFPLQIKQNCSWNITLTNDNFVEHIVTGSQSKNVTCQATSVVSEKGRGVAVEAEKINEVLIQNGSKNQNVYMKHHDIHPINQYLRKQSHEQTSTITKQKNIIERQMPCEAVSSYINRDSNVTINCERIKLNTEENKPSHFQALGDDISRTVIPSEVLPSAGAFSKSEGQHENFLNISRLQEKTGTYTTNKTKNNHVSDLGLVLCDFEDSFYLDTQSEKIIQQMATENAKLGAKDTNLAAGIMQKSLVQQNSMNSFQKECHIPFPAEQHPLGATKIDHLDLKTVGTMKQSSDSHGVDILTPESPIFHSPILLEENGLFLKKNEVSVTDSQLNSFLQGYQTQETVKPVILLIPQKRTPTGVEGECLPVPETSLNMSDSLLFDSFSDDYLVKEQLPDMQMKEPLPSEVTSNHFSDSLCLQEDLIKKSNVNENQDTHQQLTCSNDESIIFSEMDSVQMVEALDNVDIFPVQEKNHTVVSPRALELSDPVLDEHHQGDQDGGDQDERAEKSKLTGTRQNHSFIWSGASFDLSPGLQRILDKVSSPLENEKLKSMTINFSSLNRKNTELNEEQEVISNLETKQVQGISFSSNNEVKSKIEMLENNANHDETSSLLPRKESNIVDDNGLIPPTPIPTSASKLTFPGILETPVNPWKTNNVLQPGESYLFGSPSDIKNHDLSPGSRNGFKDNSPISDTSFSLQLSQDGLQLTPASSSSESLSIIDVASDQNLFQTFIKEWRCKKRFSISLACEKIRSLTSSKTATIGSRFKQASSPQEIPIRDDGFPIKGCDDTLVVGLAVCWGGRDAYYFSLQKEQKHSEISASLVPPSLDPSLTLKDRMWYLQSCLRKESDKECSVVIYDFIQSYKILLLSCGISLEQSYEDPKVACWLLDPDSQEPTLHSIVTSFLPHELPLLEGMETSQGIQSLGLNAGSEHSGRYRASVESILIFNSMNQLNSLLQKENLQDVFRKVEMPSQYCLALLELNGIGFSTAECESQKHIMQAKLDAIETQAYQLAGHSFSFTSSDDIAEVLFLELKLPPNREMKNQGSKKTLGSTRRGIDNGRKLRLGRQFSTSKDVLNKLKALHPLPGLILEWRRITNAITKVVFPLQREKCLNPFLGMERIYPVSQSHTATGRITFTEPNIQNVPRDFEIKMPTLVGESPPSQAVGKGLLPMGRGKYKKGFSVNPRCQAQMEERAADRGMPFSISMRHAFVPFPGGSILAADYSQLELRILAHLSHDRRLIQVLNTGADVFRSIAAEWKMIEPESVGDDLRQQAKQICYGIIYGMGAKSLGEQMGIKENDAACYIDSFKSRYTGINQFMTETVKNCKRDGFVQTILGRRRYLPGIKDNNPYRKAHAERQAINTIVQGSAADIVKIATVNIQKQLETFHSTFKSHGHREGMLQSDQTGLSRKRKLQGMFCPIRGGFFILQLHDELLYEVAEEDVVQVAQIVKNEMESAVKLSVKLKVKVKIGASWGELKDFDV

Target: POLQ (Homo sapiens, UniProt O75417)
Assay: γ-32P-ATP based radiometric ATPase assay
Type: biochemical
Settings: FIG. 2B radiometric ATPase assay
Procedure: FIG. 2C is a bar plot showing quantification of the radiometric ATPase assay showing in FIG. 2B. SMARCAL1 was used as a control ATPase to identify inhibitors that show specificity to POLQ.
100 μM novobiocin was used in the assay. MTX=Mitoxantrone; SUR=Suramin sodium salt; NVB=novobiocin; AUR=Aurintricarboxylic acid; VAND=vandetanib (EGFR inhibitor, negative control).

## O=C(O)C1=CC(=C(c2ccc(O)c(C(=O)O)c2)c2ccc(O)c(C(=O)O)c2)C=CC1=O [A, Aurintricarboxylic acid]
  inhibition of POLQ (ATPase) activity: inhibited POLQ activity
